Results reported in publication PMC11053489 (Viruses, 2024).

Tests used:
[1] = system: SARS-CoV-2 (hCoV-19/USA-WA1/2020) in Calu-3 cells; test: microbe, parasite or virus in culture; assay type: cell-based; conditions: Severe acute respiratory syndrome coronavirus 2, Calu-3; MOI 0.01, 72 h, 2% FBS
[2] = system: SARS-CoV-2 (hCoV-19/USA-WA1/2020) in Caco-2 cells; test: microbe, parasite or virus in culture; conditions: Severe acute respiratory syndrome coronavirus 2, Caco-2, 72 h, read-out: Caco-2 SARS-CoV-2 EC50

**Q.** For CC(C)OC(=O)C(C)(C)Oc1ccc(C(=O)c2ccc(Cl)cc2)cc1 [Fenofibrate], which EC50 [1] is on record?
**A.** > 100 µM

**Q.** And the EC50 [2]?
**A.** > 100 µM
